Measurements as given in patent US7947715B2, “Isoxazoline compound and pesticide” (Nissan Chemical Industries, Ltd., priority 2006, dated 2011).
Some results were stated once for a whole list of compounds, not compound by compound. At least one structure is not confirmed: it was looked up by name or label, or the drawing left a doubt.

Each compound was assayed on cabbage moth (Plutella xylostella) (assay: Insecticidal test against cabbage moth (leaf dip)). Details: 10 ppm (**), second instar larva, after 6 days.
Type: in vivo

| Structure (SMILES) | insecticidal rate (rate of dead insects) [%] |
| --- | --- |
| O=C(NCc1ccc(C2=NOC(c3ccc(Cl)c(C(F)(F)F)c3)(C(F)(F)F)C2)cc1Cl)C1CCOC1 (mixture of isomers) [2-331] | ≥ 80 |
| CC(NC(=O)CC(F)(F)F)c1ccc(C2=NOC(c3cc(I)cc(C(F)(F)F)c3)(C(F)(F)F)C2)cc1 (mixture of isomers) [2-492] | ≥ 80 |
| O=C(NCc1ccc(C2=NOC(c3cc(Br)cc(Br)c3)(C(F)(F)F)C2)cc1Cl)C1CC1 (racemic) [2-079] | ≥ 80 |
| CCCC(=O)NCc1ccc(C2=NOC(c3ccc(Cl)c(C(F)(F)F)c3)(C(F)(F)F)C2)cc1Cl (racemic) [2-318] | ≥ 80 |
| O=C(NCc1ccc(C2=NOC(c3ccc(Cl)c(C(F)(F)F)c3)(C(F)(F)F)C2)cc1Cl)C1CC1 (racemic) [2-323] | ≥ 80 |
| O=C(CC1CC1)NCc1ccc(C2=NOC(c3ccc(Cl)c(C(F)(F)F)c3)(C(F)(F)F)C2)cc1Cl (racemic) [2-326] | ≥ 80 |
| O=C(CC(F)(F)F)NCc1ccc(C2=NOC(c3ccc(Cl)c(C(F)(F)F)c3)(C(F)(F)F)C2)cc1Cl (racemic) [2-330] | ≥ 80 |
| O=C(NCc1ccc(C2=NOC(c3cccc(C(F)(F)F)c3)(C(F)(F)F)C2)cc1Cl)C1CC1 (stereo not drawn) [2-121] | ≥ 80 |
| O=C(NCc1ccc(C2=NOC(c3ccc(Cl)c(C(F)(F)F)c3)(C(F)(F)F)C2)cc1Cl)c1c(F)cc(F)cc1F (stereo not drawn) [2-347] | ≥ 80 |
| CC(=O)NCc1ccc(C2=NOC(c3cc(Br)c(F)c(Br)c3)(C(F)(F)F)C2)cc1Cl (stereo not drawn) [2-352] | ≥ 80 |
| CC(=O)NCc1ccc(C2=NOC(c3cc(Br)c(Cl)c(Br)c3)(C(F)(F)F)C2)cc1Cl (stereo not drawn) [2-353] | ≥ 80 |
| CC(=O)NC(C)c1ccc(C2=NOC(c3cc(Br)c(F)c(Br)c3)(C(F)(F)F)C2)cc1 (stereo not drawn) [2-361] | ≥ 80 |
| CCC(=O)NCc1ccc(C2=NOC(c3cccc(C(F)(F)F)c3)(C(F)(F)F)C2)cc1Cl (stereo not drawn) [2-363] | ≥ 80 |
| CCC(=O)NCc1ccc(C2=NOC(c3cc(Br)c(Cl)c(Br)c3)(C(F)(F)F)C2)cc1Cl (stereo not drawn) [2-367] | ≥ 80 |
| CCC(=O)NCc1ccc(C2=NOC(c3cccc(C(F)(F)F)c3)(C(F)(F)F)C2)cc1Br (stereo not drawn) [2-369] | ≥ 80 |
| CCC(=O)NC(C)c1ccc(C2=NOC(c3cc(Br)c(F)c(Br)c3)(C(F)(F)F)C2)cc1 (stereo not drawn) [2-381] | ≥ 80 |

| Structure (SMILES) | insecticidal rate (rate of dead insects) [%] |
| --- | --- |
| CCCC(=O)NCc1ccc(C2=NOC(c3cccc(C(F)(F)F)c3)(C(F)(F)F)C2)cc1Cl (stereo not drawn) [2-387] | ≥ 80 |
| CCCC(=O)NCc1ccc(C2=NOC(c3cc(Br)c(Cl)c(Br)c3)(C(F)(F)F)C2)cc1Cl (stereo not drawn) [2-391] | ≥ 80 |
| CCCC(=O)NCc1ccc(C2=NOC(c3cccc(C(F)(F)F)c3)(C(F)(F)F)C2)cc1Br (stereo not drawn) [2-393] | ≥ 80 |
| CCCC(=O)NC(C)c1ccc(C2=NOC(c3cc(Br)c(F)c(Br)c3)(C(F)(F)F)C2)cc1 (stereo not drawn) [2-401] | ≥ 80 |
| CC(C)C(=O)NCc1ccc(C2=NOC(c3cc(Br)c(F)c(Br)c3)(C(F)(F)F)C2)cc1Cl (stereo not drawn) [2-406] | ≥ 80 |
| CC(C)C(=O)NCc1ccc(C2=NOC(c3cc(Br)c(Cl)c(Br)c3)(C(F)(F)F)C2)cc1Cl (stereo not drawn) [2-407] | ≥ 80 |
| CC(C)C(=O)NC(C)c1ccc(C2=NOC(c3cc(Br)c(F)c(Br)c3)(C(F)(F)F)C2)cc1 (stereo not drawn) [2-419] | ≥ 80 |
| O=C(NCc1ccc(C2=NOC(c3ccc(F)c(Br)c3)(C(F)(F)F)C2)cc1Cl)C1CC1 (stereo not drawn) [2-422] | ≥ 80 |
| O=C(NCc1ccc(C2=NOC(c3cc(Br)cc(C(F)(F)F)c3)(C(F)(F)F)C2)cc1Cl)C1CC1 (stereo not drawn) [2-423] | ≥ 80 |
| O=C(NCc1ccc(C2=NOC(c3cc(Br)c(Cl)c(Br)c3)(C(F)(F)F)C2)cc1Cl)C1CC1 (stereo not drawn) [2-426] | ≥ 80 |
| O=C(NCc1ccc(C2=NOC(c3cccc(C(F)(F)F)c3)(C(F)(F)F)C2)cc1Br)C1CC1 (stereo not drawn) [2-428] | ≥ 80 |
| CC(NC(=O)C1CC1)c1ccc(C2=NOC(c3cc(Br)c(F)c(Br)c3)(C(F)(F)F)C2)cc1 (stereo not drawn) [2-442] | ≥ 80 |
| CC(C)CC(=O)NCc1ccc(C2=NOC(c3cc(Br)c(F)c(Br)c3)(C(F)(F)F)C2)cc1Cl (stereo not drawn) [2-459] | ≥ 80 |
| CC(C)CC(=O)NCc1ccc(C2=NOC(c3cc(Br)c(Cl)c(Br)c3)(C(F)(F)F)C2)cc1Cl (stereo not drawn) [2-460] | ≥ 80 |
| CC(C)CC(=O)NC(C)c1ccc(C2=NOC(c3cc(Br)c(F)c(Br)c3)(C(F)(F)F)C2)cc1 (stereo not drawn) [2-471] | ≥ 80 |
| O=C(CC1CC1)NCc1ccc(C2=NOC(c3cccc(C(F)(F)F)c3)(C(F)(F)F)C2)cc1Cl (stereo not drawn) [2-472] | ≥ 80 |

Same assay, conditions: 100 ppm (*), second instar larva, after 6 days

| Structure (SMILES) | insecticidal rate (rate of dead insects) [%] |
| --- | --- |
| CCN(Cc1ccc(C2=NOC(c3cc(Br)cc(C(F)(F)F)c3)(C(F)(F)F)C2)cc1Br)C(C)=O (racemic) [7-059] | ≥ 80 |
| CCC(=O)N(CC)Cc1ccc(C2=NOC(c3cc(Br)cc(C(F)(F)F)c3)(C(F)(F)F)C2)cc1Br (racemic) [7-062] | ≥ 80 |
| CCN(Cc1ccc(C2=NOC(c3cc(Br)cc(C(F)(F)F)c3)(C(F)(F)F)C2)cc1Br)C(=O)C(C)C (racemic) [7-076] | ≥ 80 |
| CC(NC(=O)C1CC1)c1ccc(C2=NOC(c3cc(I)cc(C(F)(F)F)c3)(C(F)(F)F)C2)cc1 (stereo not drawn) [2*440] | ≥ 80 |
| CC(=O)NCc1ccc(C2=NOC(c3cc(Br)cc(C(F)(F)F)c3)(C(F)(F)F)C2)cc1Cl (stereo not drawn) [2-350] | ≥ 80 |
| CC(=O)NCc1ccc(C2=NOC(c3cc(I)cc(C(F)(F)F)c3)(C(F)(F)F)C2)cc1Cl (stereo not drawn) [2-351] | ≥ 80 |
| CC(=O)NCc1ccc(C2=NOC(c3cc(Br)cc(C(F)(F)F)c3)(C(F)(F)F)C2)cc1Br (stereo not drawn) [2-355] | ≥ 80 |
| CC(=O)NC(C)c1ccc(C2=NOC(c3cc(I)cc(C(F)(F)F)c3)(C(F)(F)F)C2)cc1 (stereo not drawn) [2-360] | ≥ 80 |
| CCC(=O)NCc1ccc(C2=NOC(c3cc(Br)cc(C(F)(F)F)c3)(C(F)(F)F)C2)cc1Cl (stereo not drawn) [2-364] | ≥ 80 |
| CCC(=O)NCc1ccc(C2=NOC(c3cc(I)cc(C(F)(F)F)c3)(C(F)(F)F)C2)cc1Cl (stereo not drawn) [2-365] | ≥ 80 |
| CCC(=O)NCc1ccc(C2=NOC(c3cc(Br)c(F)c(Br)c3)(C(F)(F)F)C2)cc1Cl (stereo not drawn) [2-366] | ≥ 80 |
| CCC(=O)NCc1ccc(C2=NOC(c3cc(Br)cc(C(F)(F)F)c3)(C(F)(F)F)C2)cc1Br (stereo not drawn) [2-371] | ≥ 80 |
| CCC(=O)NC(C)c1ccc(C2=NOC(c3cc(Br)cc(C(F)(F)F)c3)(C(F)(F)F)C2)cc1 (stereo not drawn) [2-378] | ≥ 80 |
| CCC(=O)NC(C)c1ccc(C2=NOC(c3cc(I)cc(C(F)(F)F)c3)(C(F)(F)F)C2)cc1 (stereo not drawn) [2-379] | ≥ 80 |
| CCCC(=O)NCc1ccc(C2=NOC(c3cc(Br)cc(C(F)(F)F)c3)(C(F)(F)F)C2)cc1Cl (stereo not drawn) [2-388] | ≥ 80 |
| CCCC(=O)NCc1ccc(C2=NOC(c3cc(I)cc(C(F)(F)F)c3)(C(F)(F)F)C2)cc1Cl (stereo not drawn) [2-389] | ≥ 80 |
| CCCC(=O)NCc1ccc(C2=NOC(c3cc(Br)c(F)c(Br)c3)(C(F)(F)F)C2)cc1Cl (stereo not drawn) [2-390] | ≥ 80 |

| Structure (SMILES) | insecticidal rate (rate of dead insects) [%] |
| --- | --- |
| CCCC(=O)NC(C)c1ccc(C2=NOC(c3cc(I)cc(C(F)(F)F)c3)(C(F)(F)F)C2)cc1 (stereo not drawn) [2-400] | ≥ 80 |
| CC(C)C(=O)NCc1ccc(C2=NOC(c3cc(Br)cc(C(F)(F)F)c3)(C(F)(F)F)C2)cc1Cl (stereo not drawn) [2-404] | ≥ 80 |
| CC(C)C(=O)NCc1ccc(C2=NOC(c3cc(I)cc(C(F)(F)F)c3)(C(F)(F)F)C2)cc1Cl (stereo not drawn) [2-405] | ≥ 80 |
| CC(C)C(=O)NCc1ccc(C2=NOC(c3cc(Br)cc(C(F)(F)F)c3)(C(F)(F)F)C2)cc1Br (stereo not drawn) [2-410] | ≥ 80 |
| CC(C)C(=O)NC(C)c1ccc(C2=NOC(c3cc(Br)cc(C(F)(F)F)c3)(C(F)(F)F)C2)cc1 (stereo not drawn) [2-417] | ≥ 80 |
| CC(C)C(=O)NC(C)c1ccc(C2=NOC(c3cc(I)cc(C(F)(F)F)c3)(C(F)(F)F)C2)cc1 (stereo not drawn) [2-418] | ≥ 80 |
| O=C(NCc1ccc(C2=NOC(c3cc(I)cc(C(F)(F)F)c3)(C(F)(F)F)C2)cc1Cl)C1CC1 (stereo not drawn) [2-424] | ≥ 80 |
| O=C(NCc1ccc(C2=NOC(c3cc(Br)c(F)c(Br)c3)(C(F)(F)F)C2)cc1Cl)C1CC1 (stereo not drawn) [2-425] | ≥ 80 |
| O=C(NCc1ccc(C2=NOC(c3cc(Br)cc(C(F)(F)F)c3)(C(F)(F)F)C2)cc1Br)C1CC1 (stereo not drawn) [2-430] | ≥ 80 |
| CC(NC(=O)C1CC1)c1ccc(C2=NOC(c3cc(Br)cc(C(F)(F)F)c3)(C(F)(F)F)C2)cc1 (stereo not drawn) [2-439] | ≥ 80 |
| CC(C)CC(=O)NCc1ccc(C2=NOC(c3cc(Br)cc(C(F)(F)F)c3)(C(F)(F)F)C2)cc1Cl (stereo not drawn) [2-457] | ≥ 80 |
| CC(C)CC(=O)NCc1ccc(C2=NOC(c3cc(I)cc(C(F)(F)F)c3)(C(F)(F)F)C2)cc1Cl (stereo not drawn) [2-458] | ≥ 80 |
| CC(C)CC(=O)NCc1ccc(C2=NOC(c3cc(Br)cc(C(F)(F)F)c3)(C(F)(F)F)C2)cc1Br (stereo not drawn) [2-463] | ≥ 80 |
| CC(C)CC(=O)NC(C)c1ccc(C2=NOC(c3cc(Br)cc(C(F)(F)F)c3)(C(F)(F)F)C2)cc1 (stereo not drawn) [2-469] | ≥ 80 |
| CC(C)CC(=O)NC(C)c1ccc(C2=NOC(c3cc(I)cc(C(F)(F)F)c3)(C(F)(F)F)C2)cc1 (stereo not drawn) [2-470] | ≥ 80 |
| O=C(CC1CC1)NCc1ccc(C2=NOC(c3cc(Br)cc(C(F)(F)F)c3)(C(F)(F)F)C2)cc1Cl (stereo not drawn) [2-473] | ≥ 80 |
| O=C(CC1CC1)NCc1ccc(C2=NOC(c3cc(I)cc(C(F)(F)F)c3)(C(F)(F)F)C2)cc1Cl (stereo not drawn) [2-474] | ≥ 80 |
